This is an account of results in PMC11201989.

Protein sequences, listed by entry. Tags and fused reporters are not part of them. Residues count along the entry.
UniProt Q9NZQ7, residues 19-290: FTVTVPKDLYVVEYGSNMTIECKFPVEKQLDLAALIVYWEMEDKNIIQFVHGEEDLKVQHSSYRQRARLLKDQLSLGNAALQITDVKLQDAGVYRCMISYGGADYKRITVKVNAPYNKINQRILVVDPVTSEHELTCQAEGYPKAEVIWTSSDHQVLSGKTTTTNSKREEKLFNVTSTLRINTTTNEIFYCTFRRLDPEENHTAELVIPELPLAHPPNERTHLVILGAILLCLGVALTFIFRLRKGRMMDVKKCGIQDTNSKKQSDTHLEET

These are yes or no findings as the source states them, for the method shown. In cells and extracts the contact can be indirect. Some entries that bind do so weakly or less than the wild type. Sequences can lack the tags named with a protein.

Holding throughout (assay): co-IP; lysate of HEK293T cells (methods: HEK293) expressing GFP-PD-L1 or Myc-PC-2; lysis buffer 20 mM Tris-HCl pH 7.4, 150 mM NaCl, 10% glycerol, 1% Triton X-100; protein A agarose beads with anti-GFP, anti-Myc or anti-BBS5 antibody or isotype control, PBS with 5 mg/mL BSA, overnight at 4 °C; Western blot
(In general: Immunoblotting shows a protein as a band on a membrane.)

For assay [1], the target named is T1, Myc-tagged PC-2 (polycystin 2) (UniProt Q13563).
T1 sequence: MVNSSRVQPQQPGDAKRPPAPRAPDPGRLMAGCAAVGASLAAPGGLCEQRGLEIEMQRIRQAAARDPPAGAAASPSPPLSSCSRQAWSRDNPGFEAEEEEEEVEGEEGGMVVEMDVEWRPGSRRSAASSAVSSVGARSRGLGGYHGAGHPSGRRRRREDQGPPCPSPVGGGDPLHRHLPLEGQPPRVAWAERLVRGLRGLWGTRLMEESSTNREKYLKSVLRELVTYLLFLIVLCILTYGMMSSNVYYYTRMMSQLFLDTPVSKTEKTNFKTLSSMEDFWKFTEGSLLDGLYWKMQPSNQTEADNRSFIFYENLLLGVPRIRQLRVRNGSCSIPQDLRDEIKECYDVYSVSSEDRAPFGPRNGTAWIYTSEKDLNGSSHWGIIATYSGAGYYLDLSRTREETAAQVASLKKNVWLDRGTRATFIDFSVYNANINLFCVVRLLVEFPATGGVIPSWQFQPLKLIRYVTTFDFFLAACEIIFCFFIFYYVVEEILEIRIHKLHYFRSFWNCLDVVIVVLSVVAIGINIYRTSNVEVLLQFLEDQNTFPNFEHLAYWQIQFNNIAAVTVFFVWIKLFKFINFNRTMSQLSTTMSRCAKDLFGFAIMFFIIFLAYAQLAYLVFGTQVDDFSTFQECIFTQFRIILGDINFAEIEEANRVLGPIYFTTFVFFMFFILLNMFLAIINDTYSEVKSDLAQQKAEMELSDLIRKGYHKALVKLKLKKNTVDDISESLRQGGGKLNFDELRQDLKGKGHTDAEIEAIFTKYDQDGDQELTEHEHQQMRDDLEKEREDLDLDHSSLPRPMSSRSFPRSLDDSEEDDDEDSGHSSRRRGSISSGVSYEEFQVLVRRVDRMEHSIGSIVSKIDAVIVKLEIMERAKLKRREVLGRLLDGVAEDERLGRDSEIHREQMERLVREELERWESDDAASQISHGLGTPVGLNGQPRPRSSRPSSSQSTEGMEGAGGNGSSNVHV

Assay [2] addresses T2, BBS5 (human (endogenous in HEK293T)) (UniProt Q8N3I7).
T2 sequence: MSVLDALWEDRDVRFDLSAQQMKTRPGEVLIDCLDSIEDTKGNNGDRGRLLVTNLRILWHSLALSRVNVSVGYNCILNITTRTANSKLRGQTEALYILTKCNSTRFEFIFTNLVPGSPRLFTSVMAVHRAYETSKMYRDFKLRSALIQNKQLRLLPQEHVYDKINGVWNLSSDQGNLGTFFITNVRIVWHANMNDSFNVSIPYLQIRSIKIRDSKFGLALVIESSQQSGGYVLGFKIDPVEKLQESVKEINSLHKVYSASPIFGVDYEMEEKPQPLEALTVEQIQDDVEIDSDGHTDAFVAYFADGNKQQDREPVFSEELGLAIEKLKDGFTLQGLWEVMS

In assay [3] the target is GFP-tagged PD-L1 (programmed death ligand 1) (UniProt Q9NZQ7).

As to “GFP-tagged PD-L1 (programmed death ligand 1) (from UniProt Q9NZQ7 19-290)”, the binding result in assay [1] and in assay [2] was “binds” throughout.

B1: PC-2 (polycystin 2), as found with GFP-PD-L1 in Figure 6D (protein, UniProt Q13563 1-968)
chain: MVNSSRVQPQQPGDAKRPPAPRAPDPGRLMAGCAAVGASLAAPGGLCEQRGLEIEMQRIRQAAARDPPAGAAASPSPPLSSCSRQAWSRDNPGFEAEEEEEEVEGEEGGMVVEMDVEWRPGSRRSAASSAVSSVGARSRGLGGYHGAGHPSGRRRRREDQGPPCPSPVGGGDPLHRHLPLEGQPPRVAWAERLVRGLRGLWGTRLMEESSTNREKYLKSVLRELVTYLLFLIVLCILTYGMMSSNVYYYTRMMSQLFLDTPVSKTEKTNFKTLSSMEDFWKFTEGSLLDGLYWKMQPSNQTEADNRSFIFYENLLLGVPRIRQLRVRNGSCSIPQDLRDEIKECYDVYSVSSEDRAPFGPRNGTAWIYTSEKDLNGSSHWGIIATYSGAGYYLDLSRTREETAAQVASLKKNVWLDRGTRATFIDFSVYNANINLFCVVRLLVEFPATGGVIPSWQFQPLKLIRYVTTFDFFLAACEIIFCFFIFYYVVEEILEIRIHKLHYFRSFWNCLDVVIVVLSVVAIGINIYRTSNVEVLLQFLEDQNTFPNFEHLAYWQIQFNNIAAVTVFFVWIKLFKFINFNRTMSQLSTTMSRCAKDLFGFAIMFFIIFLAYAQLAYLVFGTQVDDFSTFQECIFTQFRIILGDINFAEIEEANRVLGPIYFTTFVFFMFFILLNMFLAIINDTYSEVKSDLAQQKAEMELSDLIRKGYHKALVKLKLKKNTVDDISESLRQGGGKLNFDELRQDLKGKGHTDAEIEAIFTKYDQDGDQELTEHEHQQMRDDLEKEREDLDLDHSSLPRPMSSRSFPRSLDDSEEDDDEDSGHSSRRRGSISSGVSYEEFQVLVRRVDRMEHSIGSIVSKIDAVIVKLEIMERAKLKRREVLGRLLDGVAEDERLGRDSEIHREQMERLVREELERWESDDAASQISHGLGTPVGLNGQPRPRSSRPSSSQSTEGMEGAGGNGSSNVHV
For B1, the binding entry in assay [3] was “binds”.

B2: Myc-tagged PC-2 (polycystin 2) (protein, UniProt Q13563 1-968)
chain: MVNSSRVQPQQPGDAKRPPAPRAPDPGRLMAGCAAVGASLAAPGGLCEQRGLEIEMQRIRQAAARDPPAGAAASPSPPLSSCSRQAWSRDNPGFEAEEEEEEVEGEEGGMVVEMDVEWRPGSRRSAASSAVSSVGARSRGLGGYHGAGHPSGRRRRREDQGPPCPSPVGGGDPLHRHLPLEGQPPRVAWAERLVRGLRGLWGTRLMEESSTNREKYLKSVLRELVTYLLFLIVLCILTYGMMSSNVYYYTRMMSQLFLDTPVSKTEKTNFKTLSSMEDFWKFTEGSLLDGLYWKMQPSNQTEADNRSFIFYENLLLGVPRIRQLRVRNGSCSIPQDLRDEIKECYDVYSVSSEDRAPFGPRNGTAWIYTSEKDLNGSSHWGIIATYSGAGYYLDLSRTREETAAQVASLKKNVWLDRGTRATFIDFSVYNANINLFCVVRLLVEFPATGGVIPSWQFQPLKLIRYVTTFDFFLAACEIIFCFFIFYYVVEEILEIRIHKLHYFRSFWNCLDVVIVVLSVVAIGINIYRTSNVEVLLQFLEDQNTFPNFEHLAYWQIQFNNIAAVTVFFVWIKLFKFINFNRTMSQLSTTMSRCAKDLFGFAIMFFIIFLAYAQLAYLVFGTQVDDFSTFQECIFTQFRIILGDINFAEIEEANRVLGPIYFTTFVFFMFFILLNMFLAIINDTYSEVKSDLAQQKAEMELSDLIRKGYHKALVKLKLKKNTVDDISESLRQGGGKLNFDELRQDLKGKGHTDAEIEAIFTKYDQDGDQELTEHEHQQMRDDLEKEREDLDLDHSSLPRPMSSRSFPRSLDDSEEDDDEDSGHSSRRRGSISSGVSYEEFQVLVRRVDRMEHSIGSIVSKIDAVIVKLEIMERAKLKRREVLGRLLDGVAEDERLGRDSEIHREQMERLVREELERWESDDAASQISHGLGTPVGLNGQPRPRSSRPSSSQSTEGMEGAGGNGSSNVHV
Take B2: the binding entry in assay [2] is listed as “binds”.

B3: BBS5 (protein, UniProt Q8N3I7 1-341)
chain: MSVLDALWEDRDVRFDLSAQQMKTRPGEVLIDCLDSIEDTKGNNGDRGRLLVTNLRILWHSLALSRVNVSVGYNCILNITTRTANSKLRGQTEALYILTKCNSTRFEFIFTNLVPGSPRLFTSVMAVHRAYETSKMYRDFKLRSALIQNKQLRLLPQEHVYDKINGVWNLSSDQGNLGTFFITNVRIVWHANMNDSFNVSIPYLQIRSIKIRDSKFGLALVIESSQQSGGYVLGFKIDPVEKLQESVKEINSLHKVYSASPIFGVDYEMEEKPQPLEALTVEQIQDDVEIDSDGHTDAFVAYFADGNKQQDREPVFSEELGLAIEKLKDGFTLQGLWEVMS
Turning to B3, the binding entry in assay [1] and in assay [3] was “binds” each time.
